Reference: the supplement of paper PMC7666118
The list shows a part of the results.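 The calls were made as follows: active = dose-dependent thermal stabilisation significant by F-test of dose-response against flat model at 10% FDR; inactive = not significant.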

The chains behind the UniProt entries cited, without tags or fusion partners. Where a name states a change or a piece, a line headed by the entry shows the natural chain unless it says otherwise.
UniProt Q9Y3Q8: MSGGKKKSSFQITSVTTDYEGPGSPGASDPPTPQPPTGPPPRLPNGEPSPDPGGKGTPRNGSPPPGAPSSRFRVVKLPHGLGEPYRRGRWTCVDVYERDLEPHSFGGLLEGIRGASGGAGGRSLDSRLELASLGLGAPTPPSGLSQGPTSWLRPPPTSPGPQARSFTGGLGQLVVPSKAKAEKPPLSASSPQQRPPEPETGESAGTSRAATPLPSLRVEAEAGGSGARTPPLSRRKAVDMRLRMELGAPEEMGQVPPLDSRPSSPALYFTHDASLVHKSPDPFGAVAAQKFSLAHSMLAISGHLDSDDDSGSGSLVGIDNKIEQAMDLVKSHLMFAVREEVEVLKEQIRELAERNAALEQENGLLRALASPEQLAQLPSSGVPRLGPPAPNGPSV
UniProt O43422: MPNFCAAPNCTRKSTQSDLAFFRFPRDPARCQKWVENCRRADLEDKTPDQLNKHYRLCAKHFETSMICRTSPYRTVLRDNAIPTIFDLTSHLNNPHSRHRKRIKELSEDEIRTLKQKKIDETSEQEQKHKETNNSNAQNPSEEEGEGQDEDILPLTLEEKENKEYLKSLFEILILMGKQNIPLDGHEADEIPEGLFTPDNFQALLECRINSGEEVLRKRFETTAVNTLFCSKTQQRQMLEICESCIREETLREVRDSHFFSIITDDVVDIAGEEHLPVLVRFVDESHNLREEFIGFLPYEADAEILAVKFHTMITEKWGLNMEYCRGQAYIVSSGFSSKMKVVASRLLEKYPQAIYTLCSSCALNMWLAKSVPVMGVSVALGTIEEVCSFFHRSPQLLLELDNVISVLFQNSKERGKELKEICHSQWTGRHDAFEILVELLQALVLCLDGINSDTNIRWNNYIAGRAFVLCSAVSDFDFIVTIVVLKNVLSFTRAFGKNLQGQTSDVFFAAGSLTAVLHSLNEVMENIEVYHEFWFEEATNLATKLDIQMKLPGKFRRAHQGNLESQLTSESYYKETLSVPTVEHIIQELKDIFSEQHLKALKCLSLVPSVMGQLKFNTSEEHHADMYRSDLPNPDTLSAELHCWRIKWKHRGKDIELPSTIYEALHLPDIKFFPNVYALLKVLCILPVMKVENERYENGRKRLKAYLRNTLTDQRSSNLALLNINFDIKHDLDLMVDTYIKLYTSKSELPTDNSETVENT
UniProt Q9UHD2: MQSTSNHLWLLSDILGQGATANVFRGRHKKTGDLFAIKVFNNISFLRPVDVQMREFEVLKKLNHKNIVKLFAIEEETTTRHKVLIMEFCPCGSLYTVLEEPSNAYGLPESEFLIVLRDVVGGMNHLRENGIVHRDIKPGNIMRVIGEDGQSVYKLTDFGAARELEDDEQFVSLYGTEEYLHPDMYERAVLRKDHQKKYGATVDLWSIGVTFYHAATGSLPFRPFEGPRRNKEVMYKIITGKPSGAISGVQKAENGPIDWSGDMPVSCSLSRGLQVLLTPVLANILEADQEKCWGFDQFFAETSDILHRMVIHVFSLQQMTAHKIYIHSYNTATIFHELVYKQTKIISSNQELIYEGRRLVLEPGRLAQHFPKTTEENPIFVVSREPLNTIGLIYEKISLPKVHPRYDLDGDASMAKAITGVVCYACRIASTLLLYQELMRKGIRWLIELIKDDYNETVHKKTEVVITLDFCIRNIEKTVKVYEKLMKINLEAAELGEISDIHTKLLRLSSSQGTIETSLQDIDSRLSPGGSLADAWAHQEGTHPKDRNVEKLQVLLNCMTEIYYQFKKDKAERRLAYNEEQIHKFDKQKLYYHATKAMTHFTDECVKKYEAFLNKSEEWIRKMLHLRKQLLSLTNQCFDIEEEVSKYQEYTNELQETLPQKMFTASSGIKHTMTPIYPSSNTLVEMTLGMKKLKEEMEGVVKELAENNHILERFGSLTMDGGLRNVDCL
UniProt P26368, whole entry: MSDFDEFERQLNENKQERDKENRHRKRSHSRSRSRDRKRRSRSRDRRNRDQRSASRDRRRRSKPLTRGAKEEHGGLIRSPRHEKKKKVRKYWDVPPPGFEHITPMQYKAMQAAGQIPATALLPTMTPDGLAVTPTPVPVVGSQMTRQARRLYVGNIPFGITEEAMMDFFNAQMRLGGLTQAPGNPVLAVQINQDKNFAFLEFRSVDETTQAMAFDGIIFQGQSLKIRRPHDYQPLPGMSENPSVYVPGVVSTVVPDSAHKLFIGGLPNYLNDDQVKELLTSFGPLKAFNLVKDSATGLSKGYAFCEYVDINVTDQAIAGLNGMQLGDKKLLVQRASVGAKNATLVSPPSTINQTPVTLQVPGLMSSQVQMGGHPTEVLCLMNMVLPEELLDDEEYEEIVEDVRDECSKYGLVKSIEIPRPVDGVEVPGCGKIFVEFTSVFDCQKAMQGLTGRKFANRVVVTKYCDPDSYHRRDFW
UniProt Q86VQ6, whole entry: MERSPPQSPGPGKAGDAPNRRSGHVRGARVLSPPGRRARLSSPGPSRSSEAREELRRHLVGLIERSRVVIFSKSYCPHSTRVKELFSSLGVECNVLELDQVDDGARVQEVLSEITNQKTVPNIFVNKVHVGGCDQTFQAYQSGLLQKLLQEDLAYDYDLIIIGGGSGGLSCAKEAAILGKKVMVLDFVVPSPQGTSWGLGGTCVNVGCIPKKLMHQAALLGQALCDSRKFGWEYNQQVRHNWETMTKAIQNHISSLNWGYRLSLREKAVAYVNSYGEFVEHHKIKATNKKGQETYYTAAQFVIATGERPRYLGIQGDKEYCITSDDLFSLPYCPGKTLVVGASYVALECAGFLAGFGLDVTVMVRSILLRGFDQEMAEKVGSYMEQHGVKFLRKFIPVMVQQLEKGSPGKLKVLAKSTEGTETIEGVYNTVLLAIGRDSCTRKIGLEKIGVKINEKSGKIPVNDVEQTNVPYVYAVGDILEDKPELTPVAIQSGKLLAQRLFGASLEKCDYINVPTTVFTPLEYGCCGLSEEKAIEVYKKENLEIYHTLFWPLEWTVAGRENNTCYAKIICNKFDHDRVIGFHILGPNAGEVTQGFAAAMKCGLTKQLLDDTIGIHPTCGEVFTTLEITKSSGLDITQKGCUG
UniProt Q16881, whole entry: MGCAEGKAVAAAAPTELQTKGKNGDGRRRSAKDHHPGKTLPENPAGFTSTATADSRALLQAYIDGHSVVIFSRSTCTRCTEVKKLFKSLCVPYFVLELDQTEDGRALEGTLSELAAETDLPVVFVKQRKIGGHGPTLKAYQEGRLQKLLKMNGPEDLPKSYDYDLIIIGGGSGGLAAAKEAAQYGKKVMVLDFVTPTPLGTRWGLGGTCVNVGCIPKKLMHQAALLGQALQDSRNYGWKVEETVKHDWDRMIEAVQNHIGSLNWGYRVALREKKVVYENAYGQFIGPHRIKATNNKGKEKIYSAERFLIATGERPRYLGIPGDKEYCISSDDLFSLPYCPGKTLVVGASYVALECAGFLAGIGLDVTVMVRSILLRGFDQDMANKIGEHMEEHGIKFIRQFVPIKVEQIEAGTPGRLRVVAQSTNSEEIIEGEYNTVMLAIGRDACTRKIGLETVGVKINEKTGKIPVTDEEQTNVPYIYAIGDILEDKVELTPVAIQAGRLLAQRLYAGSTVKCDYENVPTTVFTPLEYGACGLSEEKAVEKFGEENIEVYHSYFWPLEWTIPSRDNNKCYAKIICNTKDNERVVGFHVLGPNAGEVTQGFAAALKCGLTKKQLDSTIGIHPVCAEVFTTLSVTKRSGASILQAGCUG
UniProt Q9NNW7, whole entry: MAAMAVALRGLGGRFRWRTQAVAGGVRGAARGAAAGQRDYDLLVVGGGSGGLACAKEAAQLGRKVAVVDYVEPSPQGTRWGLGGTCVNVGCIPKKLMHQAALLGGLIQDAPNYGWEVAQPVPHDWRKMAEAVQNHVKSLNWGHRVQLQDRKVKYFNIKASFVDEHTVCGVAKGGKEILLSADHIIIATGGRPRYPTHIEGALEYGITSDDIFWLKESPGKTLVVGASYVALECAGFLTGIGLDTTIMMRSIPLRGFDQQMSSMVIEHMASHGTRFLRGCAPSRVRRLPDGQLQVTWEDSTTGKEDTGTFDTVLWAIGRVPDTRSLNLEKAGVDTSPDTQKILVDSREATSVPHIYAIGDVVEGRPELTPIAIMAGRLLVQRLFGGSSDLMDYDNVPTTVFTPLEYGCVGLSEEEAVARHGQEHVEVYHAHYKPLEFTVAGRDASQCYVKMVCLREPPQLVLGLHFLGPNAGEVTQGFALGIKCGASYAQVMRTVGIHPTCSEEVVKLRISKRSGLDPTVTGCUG
UniProt O14530: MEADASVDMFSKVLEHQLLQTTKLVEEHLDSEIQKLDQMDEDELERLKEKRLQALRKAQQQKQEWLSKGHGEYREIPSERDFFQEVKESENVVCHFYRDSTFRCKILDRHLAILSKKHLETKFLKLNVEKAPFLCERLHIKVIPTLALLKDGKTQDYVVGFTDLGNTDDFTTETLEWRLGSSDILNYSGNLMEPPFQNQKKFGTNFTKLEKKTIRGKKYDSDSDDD
UniProt Q9GZX9: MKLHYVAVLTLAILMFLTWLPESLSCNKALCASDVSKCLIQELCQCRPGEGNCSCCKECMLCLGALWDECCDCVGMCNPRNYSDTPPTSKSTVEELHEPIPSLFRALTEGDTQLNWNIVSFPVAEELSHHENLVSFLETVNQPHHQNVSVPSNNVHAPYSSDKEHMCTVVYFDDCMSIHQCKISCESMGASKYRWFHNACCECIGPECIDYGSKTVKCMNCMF
UniProt P13693: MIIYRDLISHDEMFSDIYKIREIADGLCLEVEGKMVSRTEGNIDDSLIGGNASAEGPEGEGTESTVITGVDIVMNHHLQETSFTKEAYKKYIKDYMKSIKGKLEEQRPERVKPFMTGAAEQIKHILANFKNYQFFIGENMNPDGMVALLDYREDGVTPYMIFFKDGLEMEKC
UniProt P11387: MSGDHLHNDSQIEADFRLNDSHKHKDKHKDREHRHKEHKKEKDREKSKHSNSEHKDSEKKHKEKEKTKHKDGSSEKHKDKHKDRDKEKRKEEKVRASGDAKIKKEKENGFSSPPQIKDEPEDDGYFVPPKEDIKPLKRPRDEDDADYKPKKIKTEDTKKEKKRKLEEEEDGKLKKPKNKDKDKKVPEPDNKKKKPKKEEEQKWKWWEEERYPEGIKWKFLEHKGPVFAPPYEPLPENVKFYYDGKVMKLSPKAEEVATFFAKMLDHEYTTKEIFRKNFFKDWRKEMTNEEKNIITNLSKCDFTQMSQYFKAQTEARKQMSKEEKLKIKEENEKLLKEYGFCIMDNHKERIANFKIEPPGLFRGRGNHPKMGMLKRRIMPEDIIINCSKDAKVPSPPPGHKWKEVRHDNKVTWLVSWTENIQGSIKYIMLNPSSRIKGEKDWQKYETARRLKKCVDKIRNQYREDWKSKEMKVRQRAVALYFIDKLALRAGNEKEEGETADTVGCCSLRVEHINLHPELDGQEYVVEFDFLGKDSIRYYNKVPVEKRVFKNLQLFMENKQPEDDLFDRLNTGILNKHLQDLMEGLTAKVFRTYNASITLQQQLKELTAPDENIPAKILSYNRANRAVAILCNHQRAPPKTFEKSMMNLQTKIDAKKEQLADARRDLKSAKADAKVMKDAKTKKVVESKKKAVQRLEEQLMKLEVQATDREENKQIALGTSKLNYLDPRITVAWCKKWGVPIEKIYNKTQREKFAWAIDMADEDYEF
UniProt P63313: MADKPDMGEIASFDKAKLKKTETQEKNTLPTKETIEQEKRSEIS
UniProt Q9C035: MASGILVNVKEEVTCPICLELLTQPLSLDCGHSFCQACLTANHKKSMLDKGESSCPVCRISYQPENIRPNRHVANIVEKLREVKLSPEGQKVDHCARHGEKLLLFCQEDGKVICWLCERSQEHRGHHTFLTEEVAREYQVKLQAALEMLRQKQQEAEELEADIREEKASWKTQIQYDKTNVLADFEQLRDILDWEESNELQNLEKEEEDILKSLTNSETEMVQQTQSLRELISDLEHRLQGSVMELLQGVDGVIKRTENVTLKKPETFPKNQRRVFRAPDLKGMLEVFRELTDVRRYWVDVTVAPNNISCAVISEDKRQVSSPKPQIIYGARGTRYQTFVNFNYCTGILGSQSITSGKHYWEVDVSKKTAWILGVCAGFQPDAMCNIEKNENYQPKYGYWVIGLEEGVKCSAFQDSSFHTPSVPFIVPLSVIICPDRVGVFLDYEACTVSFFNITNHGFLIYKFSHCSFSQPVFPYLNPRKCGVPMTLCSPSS
UniProt P31483: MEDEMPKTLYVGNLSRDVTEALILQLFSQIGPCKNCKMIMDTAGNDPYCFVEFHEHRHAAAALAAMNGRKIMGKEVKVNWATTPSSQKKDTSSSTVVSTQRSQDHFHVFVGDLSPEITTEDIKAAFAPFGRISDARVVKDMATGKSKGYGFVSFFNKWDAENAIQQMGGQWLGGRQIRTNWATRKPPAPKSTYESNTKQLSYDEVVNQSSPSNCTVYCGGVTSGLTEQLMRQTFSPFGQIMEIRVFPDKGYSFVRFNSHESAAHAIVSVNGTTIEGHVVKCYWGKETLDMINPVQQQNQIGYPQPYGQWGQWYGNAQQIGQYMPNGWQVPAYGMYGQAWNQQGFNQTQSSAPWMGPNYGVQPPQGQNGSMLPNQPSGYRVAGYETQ

Compound: Nc1nc2c(ncn2[C@@H]2O[C@H](COP(=O)(O)OP(=O)(O)OP(=O)(O)O)[C@@H](O)[C@H]2O)c(=O)[nH]1
Assay: dose-dependent thermal stabilisation call (2D-TPP, DLPTP, 10% FDR) (binary (1 = stabilised)); higher = stabilised by the compound
Details: system: Jurkat gel-filtered lysate; concentration range 1-500 µM

Target | dose-dependent thermal stabilisation call
TUBGCP6 (UniProt Q96RT7) | inactive: 0
TARS (UniProt P26639) | inactive: 0
TCOF1 (UniProt Q13428) | inactive: 0
TSC22D4 (UniProt Q9Y3Q8) | inactive: 0
TBC1D14 (UniProt Q9P2M4) | inactive: 0
THAP12 (UniProt O43422) | inactive: 0
TBK1 (UniProt Q9UHD2) | active: 1
U2AF2 (UniProt P26368) | active: 1
TUBA1A (UniProt Q71U36) | inactive: 0
TPR (UniProt P12270) | inactive: 0
THG1L (UniProt Q9NWX6) | active: 1
TOM1 (UniProt O60784) | inactive: 0
TRAPPC6B (UniProt Q86SZ2) | inactive: 0
TRIM65 (UniProt Q6PJ69) | active: 1
TRMT61A (UniProt Q96FX7) | active: 1
TXNRD3 (UniProt Q86VQ6) | inactive: 0
TBC1D22A (UniProt Q8WUA7) | inactive: 0
TRAPPC13 (UniProt A5PLN9) | inactive: 0

Target | dose-dependent thermal stabilisation call
TBCD (UniProt Q9BTW9) | active: 1
TXNRD1 (UniProt Q16881) | inactive: 0
TXNRD2 (UniProt Q9NNW7) | inactive: 0
TOPBP1 (UniProt Q92547) | inactive: 0
TXNDC9 (UniProt O14530) | inactive: 0
TK1 (UniProt P04183) | inactive: 0
TRPT1 (UniProt Q86TN4) | inactive: 0
TWSG1 (UniProt Q9GZX9) | inactive: 0
TPT1 (UniProt P13693) | inactive: 0
TOP1 (UniProt P11387) | active: 1
TMSB10 (UniProt P63313) | inactive: 0
TRUB1 (UniProt Q8WWH5) | active: 1
TMEM263 (UniProt Q8WUH6) | inactive: 0
TRIM5 (UniProt Q9C035) | inactive: 0
THAP4 (UniProt Q8WY91) | inactive: 0
TIA1 (UniProt P31483) | inactive: 0
THOC7 (UniProt Q6I9Y2) | inactive: 0
TRAF5 (UniProt O00463) | active: 1

Exported field by field: part of the list above.
TXNRD1 (UniProt Q16881)
  dose-dependent thermal stabilisation call: inactive: 0
TXNRD2 (UniProt Q9NNW7)
  dose-dependent thermal stabilisation call: inactive: 0
